Data on seven molecules can be found in paper PMC11334840.

Chains of the proteins cited; added tags and fusions are not shown.
UniProt Q96N67: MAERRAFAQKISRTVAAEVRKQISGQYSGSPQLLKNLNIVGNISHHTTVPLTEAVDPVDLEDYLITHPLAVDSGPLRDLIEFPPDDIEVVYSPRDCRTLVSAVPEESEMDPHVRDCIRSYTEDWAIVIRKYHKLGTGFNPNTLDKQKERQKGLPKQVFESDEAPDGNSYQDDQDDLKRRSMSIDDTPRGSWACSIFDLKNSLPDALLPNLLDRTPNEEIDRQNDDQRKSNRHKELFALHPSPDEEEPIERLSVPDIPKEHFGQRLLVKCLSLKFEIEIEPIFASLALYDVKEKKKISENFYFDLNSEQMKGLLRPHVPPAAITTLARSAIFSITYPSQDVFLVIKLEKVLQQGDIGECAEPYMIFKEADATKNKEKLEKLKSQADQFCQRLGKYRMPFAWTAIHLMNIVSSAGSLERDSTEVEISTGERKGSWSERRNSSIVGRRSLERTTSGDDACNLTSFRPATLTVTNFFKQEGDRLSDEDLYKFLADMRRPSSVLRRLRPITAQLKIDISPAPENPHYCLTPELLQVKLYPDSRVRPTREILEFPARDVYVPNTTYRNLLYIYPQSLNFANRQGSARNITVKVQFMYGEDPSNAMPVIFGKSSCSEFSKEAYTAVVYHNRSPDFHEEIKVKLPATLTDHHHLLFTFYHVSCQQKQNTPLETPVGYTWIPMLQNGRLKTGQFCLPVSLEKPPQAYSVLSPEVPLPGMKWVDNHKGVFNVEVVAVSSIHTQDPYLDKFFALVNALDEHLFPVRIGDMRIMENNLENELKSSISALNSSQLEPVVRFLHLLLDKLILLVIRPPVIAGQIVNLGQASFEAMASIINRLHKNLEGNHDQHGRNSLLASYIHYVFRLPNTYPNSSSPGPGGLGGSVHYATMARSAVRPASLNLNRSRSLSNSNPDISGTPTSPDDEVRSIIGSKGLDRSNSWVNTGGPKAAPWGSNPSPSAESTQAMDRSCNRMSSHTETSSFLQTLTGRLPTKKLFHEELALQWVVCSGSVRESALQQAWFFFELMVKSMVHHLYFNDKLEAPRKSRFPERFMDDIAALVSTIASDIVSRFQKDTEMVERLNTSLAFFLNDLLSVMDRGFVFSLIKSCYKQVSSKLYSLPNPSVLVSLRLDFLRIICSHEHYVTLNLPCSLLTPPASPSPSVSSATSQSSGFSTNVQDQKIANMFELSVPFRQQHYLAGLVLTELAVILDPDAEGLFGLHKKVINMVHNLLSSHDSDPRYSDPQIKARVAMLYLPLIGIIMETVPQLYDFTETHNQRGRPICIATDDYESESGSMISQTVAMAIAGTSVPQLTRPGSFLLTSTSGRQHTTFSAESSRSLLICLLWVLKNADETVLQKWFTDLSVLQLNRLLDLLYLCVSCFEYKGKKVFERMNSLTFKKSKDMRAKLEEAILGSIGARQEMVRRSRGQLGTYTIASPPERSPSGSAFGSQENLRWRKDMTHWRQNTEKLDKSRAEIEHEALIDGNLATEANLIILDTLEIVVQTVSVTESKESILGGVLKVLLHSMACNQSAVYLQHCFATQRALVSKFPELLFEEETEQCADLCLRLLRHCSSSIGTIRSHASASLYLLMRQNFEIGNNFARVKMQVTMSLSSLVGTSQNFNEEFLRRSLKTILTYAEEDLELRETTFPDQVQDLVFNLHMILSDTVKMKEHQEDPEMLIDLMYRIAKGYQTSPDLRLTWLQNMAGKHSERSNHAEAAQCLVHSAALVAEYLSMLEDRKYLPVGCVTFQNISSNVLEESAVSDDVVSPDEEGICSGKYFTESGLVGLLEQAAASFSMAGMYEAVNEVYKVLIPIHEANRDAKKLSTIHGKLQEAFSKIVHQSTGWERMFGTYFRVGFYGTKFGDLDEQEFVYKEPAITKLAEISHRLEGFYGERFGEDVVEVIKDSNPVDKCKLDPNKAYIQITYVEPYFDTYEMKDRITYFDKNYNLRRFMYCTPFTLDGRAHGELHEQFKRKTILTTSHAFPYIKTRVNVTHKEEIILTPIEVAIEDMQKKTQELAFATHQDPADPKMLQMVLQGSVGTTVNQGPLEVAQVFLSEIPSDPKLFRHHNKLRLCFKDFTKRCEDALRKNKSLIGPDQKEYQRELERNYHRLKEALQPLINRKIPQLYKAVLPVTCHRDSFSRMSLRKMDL
UniProt P07947: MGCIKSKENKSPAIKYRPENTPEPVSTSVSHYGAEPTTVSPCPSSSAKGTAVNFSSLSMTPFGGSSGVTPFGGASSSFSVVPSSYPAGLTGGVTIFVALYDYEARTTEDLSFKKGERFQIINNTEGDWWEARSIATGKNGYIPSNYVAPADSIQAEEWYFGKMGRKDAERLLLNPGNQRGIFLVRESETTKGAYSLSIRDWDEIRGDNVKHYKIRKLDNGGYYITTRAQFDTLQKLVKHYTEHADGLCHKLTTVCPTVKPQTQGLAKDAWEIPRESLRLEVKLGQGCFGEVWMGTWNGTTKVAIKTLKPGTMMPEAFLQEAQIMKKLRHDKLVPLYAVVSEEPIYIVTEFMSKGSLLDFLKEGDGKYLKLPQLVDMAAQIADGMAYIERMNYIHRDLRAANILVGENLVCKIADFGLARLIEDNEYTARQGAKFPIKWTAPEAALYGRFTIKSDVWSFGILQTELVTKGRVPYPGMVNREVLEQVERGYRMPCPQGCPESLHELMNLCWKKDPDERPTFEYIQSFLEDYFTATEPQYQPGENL
UniProt P62993: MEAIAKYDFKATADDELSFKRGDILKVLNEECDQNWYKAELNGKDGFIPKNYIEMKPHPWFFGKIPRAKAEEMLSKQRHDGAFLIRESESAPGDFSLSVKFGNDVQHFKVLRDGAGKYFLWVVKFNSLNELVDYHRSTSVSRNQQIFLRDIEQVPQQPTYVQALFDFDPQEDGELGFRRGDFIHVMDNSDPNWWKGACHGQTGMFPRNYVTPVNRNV
UniProt Q9UH65: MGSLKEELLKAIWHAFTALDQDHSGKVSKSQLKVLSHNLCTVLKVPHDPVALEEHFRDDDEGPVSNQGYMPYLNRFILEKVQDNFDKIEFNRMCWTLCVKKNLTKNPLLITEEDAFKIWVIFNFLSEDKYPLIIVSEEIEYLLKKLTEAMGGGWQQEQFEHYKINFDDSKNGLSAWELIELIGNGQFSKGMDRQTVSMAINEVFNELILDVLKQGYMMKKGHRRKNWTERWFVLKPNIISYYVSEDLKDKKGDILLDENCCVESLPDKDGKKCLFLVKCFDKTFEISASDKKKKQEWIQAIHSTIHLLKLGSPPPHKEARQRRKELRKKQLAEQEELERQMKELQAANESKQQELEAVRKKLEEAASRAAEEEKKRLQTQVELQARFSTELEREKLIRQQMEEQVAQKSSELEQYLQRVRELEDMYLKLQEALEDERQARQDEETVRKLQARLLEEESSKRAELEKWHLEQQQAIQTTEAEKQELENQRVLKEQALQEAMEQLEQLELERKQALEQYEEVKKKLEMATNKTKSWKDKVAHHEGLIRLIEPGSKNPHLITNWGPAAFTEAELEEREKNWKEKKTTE

Assay in all cases: affinity purification with mass spectrometry; biotinylated bait peptide (50 μg) on streptavidin agarose beads; 1 mg pre-cleared lysate of H520, OE19, SKBR3, U251 or HEK293T (stably FGFR2) cells in RIPA buffer, overnight at 4 °C; LC-MS; scored against scrambled control peptides (proline to leucine) with SAINTexpress and Perseus; only the target purified
The target in assay [1] is T1, EGFR PRM-containing C-terminal tail bait peptide (residues 1105-1124, wild-type PRM) (human).
T1 sequence (peptide, N-terminal biotin, joined through two polyethylene glycol (PEG) spacers): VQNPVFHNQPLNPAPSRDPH

Assay [2] deals with T2, FGFR2 PRM-containing C-terminal tail bait peptide (residues 806-821, wild-type PRM) (human).
T2 sequence (peptide, N-terminal biotin, joined through two polyethylene glycol (PEG) spacers): EPSLPQFPHINGSVKT

Assay [3] addresses T3, HER2 PRM-containing C-terminal tail bait peptide (residues 1144-1161, wild-type PRM) (human).
T3 sequence (peptide, N-terminal biotin, joined through two polyethylene glycol (PEG) spacers): DVRPQPPSPREGPLPAAR

No constants are given. Whether binding was seen depends on the method and setting. Binding seen in cells or lysates may run through a third protein. These calls come from enrichment with a bait or labelling near it, and not all partners need be listed. For part of these data: A no says only that the protein was not detected with the bait.

Turning to “Dedicator of cytokinesis protein 7 (from UniProt Q96N67 1-2140)”, the figures for the binding entry in assay [1], in assay [2] and in assay [3] were “no binding”, “no binding” and “binds”, respectively.
As for “Spectrin alpha chain, non-erythrocytic 1 (from UniProt Q13813 1-2472)”, the binding result in assay [1] and in assay [2] was “binds” in each case.
For the molecule “Src family tyrosine kinase YES (from UniProt P07947 1-543)”, in assay [1], the binding entry is “binds”.
As for “growth factor receptor bound protein 2 (from UniProt P62993 1-217)”, in assay [2], the binding result is given as “no binding”.
Regarding “switch associated protein 70 (from UniProt Q9UH65 1-585)”, the binding entry in assay [1] is listed as “binds”.

B1: Treacle protein (protein, UniProt Q13428 1-1488)
chain: MAEARKRRELLPLIYHHLLRAGYVRAAREVKEQSGQKCFLAQPVTLLDIYTHWQQTSELGRKRKAEEDAALQAKKTRVSDPISTSESSEEEEEAEAETAKATPRLASTNSSVLGADLPSSMKEKAKAETEKAGKTGNSMPHPATGKTVANLLSGKSPRKSAEPSANTTLVSETEEEGSVPAFGAAAKPGMVSAGQADSSSEDTSSSSDETDVEGKPSVKPAQVKASSVSTKESPARKAAPAPGKVGDVTPQVKGGALPPAKRAKKPEEESESSEEGSESEEEAPAGTRSQVKASEKILQVRAASAPAKGTPGKGATPAPPGKAGAVASQTKAGKPEEDSESSSEESSDSEEETPAAKALLQAKASGKTSQVGAASAPAKESPRKGAAPAPPGKTGPAVAKAQAGKREEDSQSSSEESDSEEEAPAQAKPSGKAPQVRAASAPAKESPRKGAAPAPPRKTGPAAAQVQVGKQEEDSRSSSEESDSDREALAAMNAAQVKPLGKSPQVKPASTMGMGPLGKGAGPVPPGKVGPATPSAQVGKWEEDSESSSEESSDSSDGEVPTAVAPAQEKSLGNILQAKPTSSPAKGPPQKAGPVAVQVKAEKPMDNSESSEESSDSADSEEAPAAMTAAQAKPALKIPQTKACPKKTNTTASAKVAPVRVGTQAPRKAGTATSPAGSSPAVAGGTQRPAEDSSSSEESDSEEEKTGLAVTVGQAKSVGKGLQVKAASVPVKGSLGQGTAPVLPGKTGPTVTQVKAEKQEDSESSEEESDSEEAAASPAQVKTSVKKTQAKANPAAARAPSAKGTISAPGKVVTAAAQAKQRSPSKVKPPVRNPQNSTVLARGPASVPSVGKAVATAAQAQTGPEEDSGSSEEESDSEEEAETLAQVKPSGKTHQIRAALAPAKESPRKGAAPTPPGKTGPSAAQAGKQDDSGSSSEESDSDGEAPAAVTSAQVIKPPLIFVDPNRSPAGPAATPAQAQAASTPRKARASESTARSSSSESEDEDVIPATQCLTPGIRTNVVTMPTAHPRIAPKASMAGASSSKESSRISDGKKQEGPATQVSKKNPASLPLTQAALKVLAQKASEAQPPVARTQPSSGVDSAVGTLPATSPQSTSVQAKGTNKLRKPKLPEVQQATKAPESSDDSEDSSDSSSGSEEDGEGPQGAKSAHTLGPTPSRTETLVEETAAESSEDDVVAPSQSLLSGYMTPGLTPANSQASKATPKLDSSPSVSSTLAAKDDPDGKQEAKPQQAAGMLSPKTGGKEAASGTTPQKSRKPKKGAGNPQASTLALQSNITQCLLGQPWPLNEAQVQASVVKVLTELLEQERKKVVDTTKESSRKGWESRKRKLSGDQPAARTPRSKKKKKLGAGEGGEASVSPEKTSTTSKGKAKRDKASGDVKEKKGKGSLGSQGAKDEPEEELQKGMGTVEGGDQSNPKSKKEKKKSDKRKKDKEKKEKKKKAKKASTKDSESPSQKKKKKKKKTAEQTV
For the molecule B1, the binding result in assay [1] was “no binding”; in assay [2] it was “no binding”; in assay [3], “binds”.

B2: phospholipase Cγ1 (protein, UniProt P19174 1-1290)
chain: MAGAASPCANGCGPGAPSDAEVLHLCRSLEVGTVMTLFYSKKSQRPERKTFQVKLETRQITWSRGADKIEGAIDIREIKEIRPGKTSRDFDRYQEDPAFRPDQSHCFVILYGMEFRLKTLSLQATSEDEVNMWIKGLTWLMEDTLQAPTPLQIERWLRKQFYSVDRNREDRISAKDLKNMLSQVNYRVPNMRFLRERLTDLEQRSGDITYGQFAQLYRSLMYSAQKTMDLPFLEASTLRAGERPELCRVSLPEFQQFLLDYQGELWAVDRLQVQEFMLSFLRDPLREIEEPYFFLDEFVTFLFSKENSVWNSQLDAVCPDTMNNPLSHYWISSSHNTYLTGDQFSSESSLEAYARCLRMGCRCIELDCWDGPDGMPVIYHGHTLTTKIKFSDVLHTIKEHAFVASEYPVILSIEDHCSIAQQRNMAQYFKKVLGDTLLTKPVEISADGLPSPNQLKRKILIKHKKLAEGSAYEEVPTSMMYSENDISNSIKNGILYLEDPVNHEWYPHYFVLTSSKIYYSEETSSDQGNEDEEEPKEVSSSTELHSNEKWFHGKLGAGRDGRHIAERLLTEYCIETGAPDGSFLVRESETFVGDYTLSFWRNGKVQHCRIHSRQDAGTPKFFLTDNLVFDSLYDLITHYQQVPLRCNEFEMRLSEPVPQTNAHESKEWYHASLTRAQAEHMLMRVPRDGAFLVRKRNEPNSYAISFRAEGKIKHCRVQQEGQTVMLGNSEFDSLVDLISYYEKHPLYRKMKLRYPINEEALEKIGTAEPDYGALYEGRNPGFYVEANPMPTFKCAVKALFDYKAQREDELTFIKSAIIQNVEKQEGGWWRGDYGGKKQLWFPSNYVEEMVNPVALEPEREHLDENSPLGDLLRGVLDVPACQIAIRPEGKNNRLFVFSISMASVAHWSLDVAADSQEELQDWVKKIREVAQTADARLTEGKIMERRKKIALELSELVVYCRPVPFDEEKIGTERACYRDMSSFPETKAEKYVNKAKGKKFLQYNRLQLSRIYPKGQRLDSSNYDPLPMWICGSQLVALNFQTPDKPMQMNQALFMTGRHCGYVLQPSTMRDEAFDPFDKSSLRGLEPCAISIEVLGARHLPKNGRGIVCPFVEIEVAGAEYDSTKQKTEFVVDNGLNPVWPAKPFHFQISNPEFAFLRFVVYEEDMFSDQNFLAQATFPVKGLKTGYRAVPLKNNYSEDLELASLLIKIDIFPAKENGDLSPFSGTSLRERGSDASGQLFHGRAREGSFESRYQQPFEDFRISQEHLADHFDSRERRAPRRTRVNGDNRL
On to B2, for which the binding entry in assay [2] is on record as “no binding”.
